The test addresses endogenous B55α (66cl4 cells) (mouse (endogenous in 66cl4)) (UniProt Q6P1F6). Description: co-IP; 66cl4 cell lysate, α-B55α antibody with Protein A/G beads at 4 °C overnight, blot with α-B55α and α-Myc; cells with scrambled shRNA, Eya3 shRNA, or with and without FLAG-Eya3 overexpression.

Amino acid sequences for entries named in this document (tags omitted). A change or cut given only in a name is not applied to a line headed by its entry.
UniProt Q6P1F6: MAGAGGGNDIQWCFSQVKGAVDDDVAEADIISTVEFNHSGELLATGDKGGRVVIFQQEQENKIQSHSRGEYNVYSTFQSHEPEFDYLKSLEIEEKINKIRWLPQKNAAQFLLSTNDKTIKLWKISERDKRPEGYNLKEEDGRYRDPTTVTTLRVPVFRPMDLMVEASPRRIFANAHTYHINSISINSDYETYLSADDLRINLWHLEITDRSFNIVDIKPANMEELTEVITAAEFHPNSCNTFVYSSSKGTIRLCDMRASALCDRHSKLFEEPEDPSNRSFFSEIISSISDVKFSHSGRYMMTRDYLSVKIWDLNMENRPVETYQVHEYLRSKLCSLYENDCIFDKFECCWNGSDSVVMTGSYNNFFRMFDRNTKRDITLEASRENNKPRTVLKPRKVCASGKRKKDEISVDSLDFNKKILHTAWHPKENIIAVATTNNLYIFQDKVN
UniProt P01108: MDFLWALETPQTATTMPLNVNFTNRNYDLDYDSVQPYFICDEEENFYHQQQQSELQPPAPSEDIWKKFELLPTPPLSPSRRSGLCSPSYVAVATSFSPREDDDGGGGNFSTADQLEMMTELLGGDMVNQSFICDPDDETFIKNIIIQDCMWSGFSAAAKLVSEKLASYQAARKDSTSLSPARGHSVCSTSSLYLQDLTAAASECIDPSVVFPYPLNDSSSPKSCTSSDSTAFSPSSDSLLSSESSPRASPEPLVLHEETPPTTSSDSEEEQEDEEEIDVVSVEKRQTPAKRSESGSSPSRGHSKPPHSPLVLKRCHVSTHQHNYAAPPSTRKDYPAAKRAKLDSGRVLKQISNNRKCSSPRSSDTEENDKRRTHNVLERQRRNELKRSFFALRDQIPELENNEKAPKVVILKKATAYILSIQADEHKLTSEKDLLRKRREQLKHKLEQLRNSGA

These are yes or no findings as the source states them, for the method shown. In cells and extracts the contact can be indirect. Binding calls can cover weak binding; strength is not graded here.

“endogenous Myc (66cl4 cells) (from UniProt P01108)”: the binding entry is recorded as “binds”.
